Laboratory results: patent US5997843A, “Radiometal complexes that localise in hypoxic tissue” (priority 1993, dated 1999)

Assay: Zinc in ammonium chloride solution reduction test
Conditions: change of HPLC profile of the ^99m Tc complex after 15 minutes
For `CC(=NO)C(C)(C)NCCCCNC(C)(C)C(C)=NO` [Compound I, 4,9-diaza-3,3,10,10-tetramethyldodecan-2,11',-dione dioxime], the “Zinc/ammonium chloride reduction test result” value was “positive”. For `CC(=NO)C(C)(C)NCCCCCNC(C)(C)C(C)=NO` [Compound III, 4,10-diaza-3,3,11,11-tetramethyltridecan-2,12-dione dioxime], the “Zinc/ammonium chloride reduction test result” value was “negative”. In the case of `CC(=NO)C(C)(C)NCCCCNC(C)(C)C(Cn1ccnc1[N+](=O)[O-])=NO` [Compound II], the “Zinc/ammonium chloride reduction test result” value is reported as “positive”. In the case of `CC(=NO)C(C)(C)NCCCCCNC(C)(C)C(Cn1ccnc1[N+](=O)[O-])=NO` [Compound IV, 3,3,11,11-tetramethyl-1-(2-nitro-1H-imidazo-1-yl)-4,10-diazatridecan-2,12-dione dioxime], the “Zinc/ammonium chloride reduction test result” value is reported as “appears inert to Zn/NH3”.
